Test results taken from article PMC12005806.
These are yes or no findings as the source states them, for the method shown. Binding seen in cells or lysates may run through a third protein. Some binding calls cover weakened binding; strength is not graded here. For some of these results: Tags and fused reporters may be left off the sequences shown.

The chains behind the UniProt entries cited, without tags or fusion partners.
UniProt O94874: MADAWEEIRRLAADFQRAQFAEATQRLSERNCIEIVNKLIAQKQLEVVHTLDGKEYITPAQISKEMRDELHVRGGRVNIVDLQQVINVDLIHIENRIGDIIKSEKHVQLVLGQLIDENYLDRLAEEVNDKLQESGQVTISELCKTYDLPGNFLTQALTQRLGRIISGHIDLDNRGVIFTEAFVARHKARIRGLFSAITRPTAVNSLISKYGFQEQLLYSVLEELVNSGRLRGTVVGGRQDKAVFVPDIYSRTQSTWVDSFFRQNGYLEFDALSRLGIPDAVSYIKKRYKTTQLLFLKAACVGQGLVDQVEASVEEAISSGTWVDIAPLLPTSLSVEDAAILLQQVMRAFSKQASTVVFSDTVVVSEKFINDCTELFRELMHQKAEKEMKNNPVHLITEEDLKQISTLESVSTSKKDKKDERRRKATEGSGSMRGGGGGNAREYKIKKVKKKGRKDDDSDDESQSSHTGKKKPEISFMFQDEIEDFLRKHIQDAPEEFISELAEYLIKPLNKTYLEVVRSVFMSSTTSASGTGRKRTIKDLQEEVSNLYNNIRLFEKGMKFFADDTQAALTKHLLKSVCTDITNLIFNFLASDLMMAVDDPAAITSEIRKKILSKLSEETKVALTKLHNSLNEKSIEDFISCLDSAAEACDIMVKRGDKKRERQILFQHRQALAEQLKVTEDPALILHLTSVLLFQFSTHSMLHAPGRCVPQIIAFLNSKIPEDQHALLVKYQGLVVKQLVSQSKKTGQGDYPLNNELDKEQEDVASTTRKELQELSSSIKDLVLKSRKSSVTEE
UniProt Q8R4B8: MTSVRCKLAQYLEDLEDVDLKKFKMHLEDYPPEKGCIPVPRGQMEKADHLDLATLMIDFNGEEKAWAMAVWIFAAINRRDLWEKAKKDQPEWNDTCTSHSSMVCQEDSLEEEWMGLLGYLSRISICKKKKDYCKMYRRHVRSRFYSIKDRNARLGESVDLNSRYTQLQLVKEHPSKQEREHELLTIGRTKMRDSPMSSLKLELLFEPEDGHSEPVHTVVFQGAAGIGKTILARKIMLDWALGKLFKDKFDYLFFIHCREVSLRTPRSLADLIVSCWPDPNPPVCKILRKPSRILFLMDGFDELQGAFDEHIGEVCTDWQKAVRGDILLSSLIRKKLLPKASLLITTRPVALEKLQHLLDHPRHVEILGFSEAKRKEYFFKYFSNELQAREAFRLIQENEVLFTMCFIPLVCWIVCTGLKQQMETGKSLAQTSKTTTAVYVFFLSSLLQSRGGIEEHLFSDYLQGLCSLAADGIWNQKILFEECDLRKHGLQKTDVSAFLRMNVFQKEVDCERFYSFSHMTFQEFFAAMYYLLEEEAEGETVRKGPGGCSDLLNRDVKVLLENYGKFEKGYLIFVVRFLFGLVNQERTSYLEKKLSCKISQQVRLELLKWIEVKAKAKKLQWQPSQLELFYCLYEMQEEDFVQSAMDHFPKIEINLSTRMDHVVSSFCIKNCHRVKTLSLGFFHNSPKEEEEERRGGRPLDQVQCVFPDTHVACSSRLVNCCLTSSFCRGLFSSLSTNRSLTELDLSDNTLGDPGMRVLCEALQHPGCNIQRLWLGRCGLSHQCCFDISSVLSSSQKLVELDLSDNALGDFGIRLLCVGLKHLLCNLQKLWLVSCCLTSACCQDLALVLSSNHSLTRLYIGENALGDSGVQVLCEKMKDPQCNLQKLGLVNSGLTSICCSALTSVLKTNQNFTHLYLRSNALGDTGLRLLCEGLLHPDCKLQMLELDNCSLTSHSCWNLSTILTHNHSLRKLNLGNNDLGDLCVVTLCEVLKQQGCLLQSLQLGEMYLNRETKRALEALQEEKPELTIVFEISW
UniProt Q96P20: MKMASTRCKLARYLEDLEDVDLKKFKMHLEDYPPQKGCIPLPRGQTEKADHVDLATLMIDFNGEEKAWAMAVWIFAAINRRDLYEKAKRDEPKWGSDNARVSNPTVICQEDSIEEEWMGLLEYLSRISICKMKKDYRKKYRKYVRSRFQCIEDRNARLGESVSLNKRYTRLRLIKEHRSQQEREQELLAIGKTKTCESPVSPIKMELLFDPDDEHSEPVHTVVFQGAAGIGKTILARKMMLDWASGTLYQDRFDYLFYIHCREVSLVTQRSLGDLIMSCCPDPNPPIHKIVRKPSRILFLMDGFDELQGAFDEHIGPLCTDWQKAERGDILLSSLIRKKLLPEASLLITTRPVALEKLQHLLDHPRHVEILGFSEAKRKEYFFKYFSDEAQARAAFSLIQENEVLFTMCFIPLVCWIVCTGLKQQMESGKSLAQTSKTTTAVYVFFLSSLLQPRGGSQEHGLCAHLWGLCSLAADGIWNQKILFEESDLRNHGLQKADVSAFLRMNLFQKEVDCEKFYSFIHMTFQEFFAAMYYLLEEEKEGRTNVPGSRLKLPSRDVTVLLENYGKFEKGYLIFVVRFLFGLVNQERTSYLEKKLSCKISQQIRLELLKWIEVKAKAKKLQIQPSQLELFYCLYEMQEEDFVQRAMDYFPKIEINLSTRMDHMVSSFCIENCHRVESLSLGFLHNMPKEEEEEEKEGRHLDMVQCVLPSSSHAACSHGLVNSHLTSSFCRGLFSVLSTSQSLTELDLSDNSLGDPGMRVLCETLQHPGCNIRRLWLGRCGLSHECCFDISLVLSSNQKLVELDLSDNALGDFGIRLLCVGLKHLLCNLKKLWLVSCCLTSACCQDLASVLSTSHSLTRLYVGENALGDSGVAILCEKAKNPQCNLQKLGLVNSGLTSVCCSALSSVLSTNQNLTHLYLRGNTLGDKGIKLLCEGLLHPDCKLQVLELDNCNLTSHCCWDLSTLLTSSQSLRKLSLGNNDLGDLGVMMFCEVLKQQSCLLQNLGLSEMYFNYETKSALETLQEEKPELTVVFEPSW

Experiments:
V5-tagged Ufl1 = target: T1, V5-tagged Ufl1 (UniProt Q8CCJ3); assay: co-IP; HEK293T cells co-transfected with Flag-tagged NLRP3 and V5-tagged Ufl1; 0.3% NP-40 lysis buffer; IP with Flag beads or with V5 antibody
T1 sequence: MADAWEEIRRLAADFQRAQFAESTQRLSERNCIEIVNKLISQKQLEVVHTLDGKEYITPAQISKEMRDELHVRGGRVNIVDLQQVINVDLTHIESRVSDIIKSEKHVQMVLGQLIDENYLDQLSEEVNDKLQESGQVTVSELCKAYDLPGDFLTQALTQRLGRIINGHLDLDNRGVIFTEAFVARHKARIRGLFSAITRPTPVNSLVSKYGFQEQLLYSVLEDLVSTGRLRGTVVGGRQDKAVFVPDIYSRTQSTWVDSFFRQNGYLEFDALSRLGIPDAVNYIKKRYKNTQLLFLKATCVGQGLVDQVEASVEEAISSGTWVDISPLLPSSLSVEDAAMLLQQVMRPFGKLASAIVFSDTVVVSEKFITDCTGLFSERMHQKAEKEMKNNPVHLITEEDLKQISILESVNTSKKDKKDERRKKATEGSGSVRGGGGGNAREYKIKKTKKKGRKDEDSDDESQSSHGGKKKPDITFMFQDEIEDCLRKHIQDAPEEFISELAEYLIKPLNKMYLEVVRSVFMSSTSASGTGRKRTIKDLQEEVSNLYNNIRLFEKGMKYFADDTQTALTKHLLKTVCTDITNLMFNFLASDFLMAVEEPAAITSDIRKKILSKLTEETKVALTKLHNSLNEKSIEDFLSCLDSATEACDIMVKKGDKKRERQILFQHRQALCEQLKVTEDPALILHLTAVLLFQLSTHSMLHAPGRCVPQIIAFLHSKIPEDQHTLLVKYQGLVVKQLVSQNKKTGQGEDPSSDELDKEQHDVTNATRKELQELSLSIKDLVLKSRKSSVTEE

GST-tagged Ufl1 = target: T2, GST-tagged Ufl1 (UniProt Q8CCJ3); assay: pull-down; GST or GST-tagged Ufl1 on Glutathione Sepharose beads incubated overnight at 4 °C with cell lysates (150 mM NaCl, 50 mM Tris-HCl pH 7.4, 1% Triton X-100, 1 mM EDTA); blot with anti-Flag or anti-NLRP3; only the target purified
T2 sequence: T1 sequence

[1] = target: Ufl1 (endogenous, THP-1-derived macrophages) (human (endogenous in THP-1)) (UniProt O94874); assay: co-IP; endogenous proteins in THP-1-derived macrophages, resting, LPS-stimulated (1 µg/mL, 3 h) or LPS-primed and ATP-activated (2 mM, 30 min); 0.3% NP-40 lysis buffer; IP with Ufl1 antibody overnight at 4 °C

Row | Substance | binding (V5-tagged Ufl1) | binding (GST-tagged Ufl1) | binding [1]
1 | Flag-tagged NLRP3 (from UniProt Q8R4B8 1-1033) | binds | binds | 
2 | NLRP3 (endogenous, LPS-stimulated mouse peritoneal macrophages) (from UniProt Q8R4B8 1-1033) |  | binds | 
3 | NLRP3 (endogenous, THP-1-derived macrophages) (from UniProt Q96P20 1-1036) |  |  | binds
